Reference: PubChem BioAssay AID1259280 (Sanger Institute, 2017)

Test: 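Essential kinases and drug-combination synergies in SNU407 cells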 (primary screen)
System: human SNU407 colorectal cancer cells
Reagent: siRNA pool against human genes
Challenge: anchor drugs BYL719 at 1 µM, cetuximab at 5 µg/ml or trametinib at 10 nM, or DMSO vehicle alone; exposure time not given
Read-out: 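Viability relative to non-targeting control siRNA, expressed as robust z-score, plus a synergy score for each of the three anchor drugs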
Direction: viability z-score, no drug: higher = more cells survive the knock-down
Rule for the call: 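Essential calls require a no-drug robust viability z-score under -3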
Meaning of the calls: active = essential (knock-down alone kills cells); inactive = no change without drug
This is an unselected part of 794 reagents. 12 of them (1.5%) were called active. 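Calls cover knock-down without drug only; synergy scores stand apart, values above 0.15 being treated as synergy.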 Not all columns of the deposit are shown. Reagent sequences are not shown. Not stated in the record: the amount of reagent, the time to read-out.

The first 3 records as a preview:
{"gene symbol":"STK16","viability z-score, no drug":0.901,"activity call":"inactive"}
{"gene symbol":"CDADC1","viability z-score, no drug":0.308,"activity call":"inactive"}
{"gene symbol":"IKBKE","viability z-score, no drug":0.901,"activity call":"inactive"}

Results, from the start:
{"gene symbol":"STK16","viability z-score, no drug":0.901,"activity call":"inactive"}
{"gene symbol":"CDADC1","viability z-score, no drug":0.308,"activity call":"inactive"}
{"gene symbol":"IKBKE","viability z-score, no drug":0.901,"activity call":"inactive"}
{"gene symbol":"DCK","viability z-score, no drug":-1.85,"activity call":"inactive"}
{"gene symbol":"AKAP9","viability z-score, no drug":0.834,"activity call":"inactive"}
{"gene symbol":"TAOK1","viability z-score, no drug":-0.412,"activity call":"inactive"}
{"gene symbol":"ETNK2","viability z-score, no drug":-1.36,"activity call":"inactive"}
{"gene symbol":"TEC","viability z-score, no drug":0.0544,"activity call":"inactive"}
{"gene symbol":"PRKACB","viability z-score, no drug":-1.18,"activity call":"inactive"}
{"gene symbol":"PIP4K2B","viability z-score, no drug":0.176,"activity call":"inactive"}
{"gene symbol":"CAMK1D","viability z-score, no drug":-0.802,"activity call":"inactive"}
{"gene symbol":"CERK","viability z-score, no drug":0.901,"activity call":"inactive"}
{"gene symbol":"PLK3","viability z-score, no drug":0.0419,"activity call":"inactive"}
{"gene symbol":"TRIM27","viability z-score, no drug":-0.17,"activity call":"inactive"}
{"gene symbol":"STK38L","viability z-score, no drug":-1.12,"activity call":"inactive"}
{"gene symbol":"MGA","viability z-score, no drug":-1.71,"activity call":"inactive"}
{"gene symbol":"SRP72","viability z-score, no drug":0.741,"activity call":"inactive"}
{"gene symbol":"CDKL3","viability z-score, no drug":-0.209,"activity call":"inactive"}
{"gene symbol":"OXSR1","viability z-score, no drug":0.0952,"activity call":"inactive"}
{"gene symbol":"PRKAB1","viability z-score, no drug":-1.32,"activity call":"inactive"}
{"gene symbol":"FLT4","viability z-score, no drug":0.901,"activity call":"inactive"}
{"gene symbol":"FLT3","viability z-score, no drug":0.563,"activity call":"inactive"}
{"gene symbol":"HIPK2","viability z-score, no drug":0.101,"activity call":"inactive"}
{"gene symbol":"PINK1","viability z-score, no drug":-0.443,"activity call":"inactive"}
{"gene symbol":"TJP2","viability z-score, no drug":0.901,"activity call":"inactive"}
{"gene symbol":"LYN","viability z-score, no drug":0.901,"activity call":"inactive"}
{"gene symbol":"EFNA3","viability z-score, no drug":-1.32,"activity call":"inactive"}
{"gene symbol":"PRKD1","viability z-score, no drug":0.901,"activity call":"inactive"}
